This is one part of the list.

The chains behind the UniProt entries cited, without tags or fusion partners.
UniProt Q0JBA9, entry or part of it: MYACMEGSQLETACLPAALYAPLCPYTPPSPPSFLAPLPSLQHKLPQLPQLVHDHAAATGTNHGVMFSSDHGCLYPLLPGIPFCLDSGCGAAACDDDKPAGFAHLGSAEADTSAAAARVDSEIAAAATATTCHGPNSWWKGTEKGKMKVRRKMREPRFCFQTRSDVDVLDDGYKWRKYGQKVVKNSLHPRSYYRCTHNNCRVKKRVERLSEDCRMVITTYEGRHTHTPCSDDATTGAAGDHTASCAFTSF

The target in the experiment is OsWRKY34 (Oryza sativa, UniProt Q0JBA9 1-250). The experiment in a line: protein-binding microarray (RPBM); PBS, 2% BSA, 51.3 ng/ul salmon testes DNA, 50 uM zinc acetate, 200 nM TF, 25 C, 1 h; high values mean tight binding. The note with it: protein: recombinant; tags: N-terminal polyhistidine and DsRed monomer fusion (pET32a); label: CyDye5-dUTP incorporated in the synthesized complementary strand; 3' TTTTT single-stranded linker to array surface; dsDNA, one strand shown. In a few lines: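 Binding signal is defined as the fluorescence intensity of each feature in arbitrary units, read on an Axon 4000B scanner. Transcription factors with N-terminal polyhistidine and DsRed fusions came from E. coli BL21-CodonPlus and were purified on Ni–NTA. They were incubated at 200 nM for 1 h at 25 °C on a custom Agilent array that had been made double-stranded with Cy5-dUTP, with 50 µM zinc acetate present, and the array was washed.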
Turning to “GGATAGAGTGGTGCTTTGGTGTGCTTTTGTTTTAATTGTTCGGAGTCACCTAGTGCAG”, the binding signal is 11700 fluorescence intensity (a.u.).
For the sequence “AACACACGCCACACTCCTCTCGCCCGCATCGCACTCGCACCGGAGTCACCTAGTGCAG”, the binding signal is 10700 fluorescence intensity (a.u.).
To “TCCCCGTCACGCGGTCAACCCGCCCATGCATTCGCGCGCCCGGAGTCACCTAGTGCAG” belongs 9200 fluorescence intensity (a.u.).
With “ATCCAACCGACGCGAAACCGACGCGTTGCTTCCCTGCTAACGGAGTCACCTAGTGCAG” the figure was 8320 fluorescence intensity (a.u.); with “CCTCCGCCACCTTTGCATTCACCATCCTTCCAGTCAAATCCGGAGTCACCTAGTGCAG”, 11500 fluorescence intensity (a.u.); with “CTCCTCACACATTCCCACGCACACATTTCCCCATGCACATCGGAGTCACCTAGTGCAG”, 9490 fluorescence intensity (a.u.).
With “TCGTCATATTTACTTTCGTCATATTTAATCTCTATTTAACCGGAGTCACCTAGTGCAG” the figure was 8390 fluorescence intensity (a.u.); with “AGGTGTGAGAGATAAAAAGGTAATAGTTGGTCACGTCATACGGAGTCACCTAGTGCAG”, 9080 fluorescence intensity (a.u.).
For “GACGCCGTTAACTTTTTCTCACATGTTTAACCATTCGTCTCGGAGTCACCTAGTGCAG”, the binding signal is 12700 fluorescence intensity (a.u.).
With “ATAACTTTTATTTTGGTCATTTATTCATCCGACAAAATAGCGGAGTCACCTAGTGCAG” the figure was 9220 fluorescence intensity (a.u.); with “ACCCACCAAACACATCCACGTCCCTTCACCGTTGGCCTTCCGGAGTCACCTAGTGCAG”, 14100 fluorescence intensity (a.u.); with “ACCGCCATAGACTACCCAAGCCACTCAAATAGTACGATTTCGGAGTCACCTAGTGCAG”, 8170 fluorescence intensity (a.u.).
Turning to “CCACGCCAACACCATCTCTCTTTCCTCTATTCTCTCCCTTCGGAGTCACCTAGTGCAG”, the binding signal is 9120 fluorescence intensity (a.u.).
With “CCGTCTACCATCTAGATGTCGACAAAACCATGTGCTCCTCCGGAGTCACCTAGTGCAG” the figure was 8150 fluorescence intensity (a.u.).
With “GTGTAGTAGTGTAGTAGGATCGCATCTAACCGTTGATTTTCGGAGTCACCTAGTGCAG” the figure was 8580 fluorescence intensity (a.u.); with “TCTCTCTCTCTCTCTCTTCTCTTCTCTTTGTTTTCTTGTTCGGAGTCACCTAGTGCAG”, 9940 fluorescence intensity (a.u.); with “ACCCGCTTGCTAGTTTATTTTTACATGGTAATACAAAATTCGGAGTCACCTAGTGCAG”, 9030 fluorescence intensity (a.u.).
With “ACCGCCGCGGCGGCTTCGCTTCGCTTCCCAATCCTTCACACGGAGTCACCTAGTGCAG” the figure was 9120 fluorescence intensity (a.u.); with “CAAGCCGGGTGGGAAGGGGCGGGACTCCATACTGCTGCCGCGGAGTCACCTAGTGCAG”, 13000 fluorescence intensity (a.u.).
Regarding “CCCAGATTCGCCCCGCACCGCACCGCCCTTGGCTCGCCCCCGGAGTCACCTAGTGCAG”, the binding signal is 8340 fluorescence intensity (a.u.).
To “GATCAACCACTCTGCCACTAGACTCCATTTGCACTTCACTCGGAGTCACCTAGTGCAG” belongs 8940 fluorescence intensity (a.u.).
With “GCGCCAACTCACCACCACATGCATATACACACGAGAAATCCGGAGTCACCTAGTGCAG” the figure was 11400 fluorescence intensity (a.u.); with “GCCCATAACCATCGTCGATCTCGTCCGCACATCTGCGGCCCGGAGTCACCTAGTGCAG”, 13300 fluorescence intensity (a.u.).

The values above are taken from publication PMC7819943, “Rice protein-binding microarrays: a tool to detect cis-acting elements near promoter regions in rice”.
